{"source": "patent US6982283B2", "about": "“Method for treating drug-induced constipation” (Sucampo AG, priority 2001, dated 2006)", "test_system": "Male ICR mice", "test": "Antagonism to morphine-induced constipation: graphite marker in the caecum", "assay_type": "in vivo"}
{"smiles": "CN1CC[C@]23c4c5ccc(O)c4O[C@H]2[C@@H](O)C=C[C@H]3[C@H]1C5.Cl", "note": "[Morphine, Morphine hydrochloride]", "values": [{"measurement": "Ratio of animals with positive scores", "setting": "morphine 5 mg/kg i.p. + vehicle (0.5% tragacanth solution), Example 2, Table 2", "result": 20, "unit": "%"}, {"measurement": "Ratio of animals with positive scores", "setting": "morphine 5 mg/kg i.p. + vehicle (physiological saline), Example 2, Table 3", "result": 30, "unit": "%"}, {"measurement": "Ratio of animals with positive scores", "setting": "morphine 5 mg/kg i.p. + vehicle (saline, 0.01% polysorbate 80, 0.5% ethanol) orally, Example 1, Table 1, hydrochloride", "result": 20, "unit": "%"}, {"measurement": "Ratio of animals with positive scores", "setting": "morphine 5 mg/kg i.p. + vehicle (saline, 0.01% polysorbate 80, 0.5% ethanol) orally, Example 1, Table 1, listed as morphine, hydrochloride", "result": 20, "unit": "%"}]}
